In paper PMC11849937 one finds binding data, which are given here for 2 molecules.

Chains of the proteins cited; added tags and fusions are not shown.
UniProt Q8N8Y2: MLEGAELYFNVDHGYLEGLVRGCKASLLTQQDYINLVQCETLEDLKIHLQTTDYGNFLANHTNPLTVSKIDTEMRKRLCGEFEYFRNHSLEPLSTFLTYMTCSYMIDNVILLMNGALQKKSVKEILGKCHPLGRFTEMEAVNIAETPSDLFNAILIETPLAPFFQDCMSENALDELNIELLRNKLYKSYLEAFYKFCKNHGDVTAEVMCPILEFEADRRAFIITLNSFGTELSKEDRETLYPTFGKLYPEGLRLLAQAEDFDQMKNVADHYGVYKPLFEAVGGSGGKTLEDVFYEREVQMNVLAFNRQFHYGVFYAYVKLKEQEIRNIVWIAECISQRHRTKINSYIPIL

In assay [1] the target is Flag-tagged ATP6V0D2 (ATPase H+ transporting V0 subunit d2) (UniProt Q8N8Y2). The assay can be described thus: co-IP; 786O cells stably expressing flag-ATP6V0D2 immunoprecipitated by beads; blots for endogenous VPS41, VPS39 and RAB7.
Assay [2] deals with FLAG-tagged ATP6V0D2 (in 293T cells) (UniProt Q8N8Y2). The assay can be described thus: co-IP; 293T cells cotransfected with FLAG-tagged ATP6V0D2, His-tagged RAB7 and His-tagged VPS41.

No constants are given. Whether binding was seen depends on the method and setting. In cells and extracts the contact can be indirect. Some results given as binding are weak or reduced against the parent protein; the word gives no strength. For some assays here: Sequences can lack the tags named with a protein.

B1: VPS41 (endogenous) (protein, UniProt P49754 1-854)
chain: MAEAEEQETGSLEESTDESEEEESEEEPKLKYERLSNGVTEILQKDAASCMTVHDKFLALGTHYGKVYLLDVQGNITQKFDVSPVKINQISLDESGEHMGVCSEDGKVQVFGLYSGEEFHETFDCPIKIIAVHPHFVRSSCKQFVTGGKKLLLFERSWMNRWKSAVLHEGEGNIRSVKWRGHLIAWANNMGVKIFDIISKQRITNVPRDDISLRPDMYPCSLCWKDNVTLIIGWGTSVKVCSVKERHASEMRDLPSRYVEIVSQFETEFYISGLAPLCDQLVVLSYVKEISEKTEREYCARPRLDIIQPLSETCEEISSDALTVRGFQENECRDYHLEYSEGESLFYIVSPRDVVVAKERDQDDHIDWLLEKKKYEEALMAAEISQKNIKRHKILDIGLAYINHLVERGDYDIAARKCQKILGKNAALWEYEVYKFKEIGQLKAISPYLPRGDPVLKPLIYEMILHEFLESDYEGFATLIREWPGDLYNNSVIVQAVRDHLKKDSQNKTLLKTLAELYTYDKNYGNALEIYLTLRHKDVFQLIHKHNLFSSIKDKIVLLMDFDSEKAVDMLLDNEDKISIKKVVEELEDRPELQHVYLHKLFKRDHHKGQRYHEKQISLYAEYDRPNLLPFLRDSTHCPLEKALEICQQRNFVEETVYLLSRMGNSRSALKMIMEELHDVDKAIEFAKEQDDGELWEDLILYSIDKPPFITGLLNNIGTHVDPILLIHRIKEGMEIPNLRDSLVKILQDYNLQILLREGCKKILVADSLSLLKKMHRTQMKGVLVDEENICESCLSPILPSDAAKPFSVVVFHCRHMFHKECLPMPSMNSAAQFCNICSAKNRGPGSAILEMKK
On to B1, for which the binding result in assay [1] is listed as “binds”.

B2: His-tagged VPS41 (in 293T cells) (protein, UniProt P49754 1-854)
chain: MAEAEEQETGSLEESTDESEEEESEEEPKLKYERLSNGVTEILQKDAASCMTVHDKFLALGTHYGKVYLLDVQGNITQKFDVSPVKINQISLDESGEHMGVCSEDGKVQVFGLYSGEEFHETFDCPIKIIAVHPHFVRSSCKQFVTGGKKLLLFERSWMNRWKSAVLHEGEGNIRSVKWRGHLIAWANNMGVKIFDIISKQRITNVPRDDISLRPDMYPCSLCWKDNVTLIIGWGTSVKVCSVKERHASEMRDLPSRYVEIVSQFETEFYISGLAPLCDQLVVLSYVKEISEKTEREYCARPRLDIIQPLSETCEEISSDALTVRGFQENECRDYHLEYSEGESLFYIVSPRDVVVAKERDQDDHIDWLLEKKKYEEALMAAEISQKNIKRHKILDIGLAYINHLVERGDYDIAARKCQKILGKNAALWEYEVYKFKEIGQLKAISPYLPRGDPVLKPLIYEMILHEFLESDYEGFATLIREWPGDLYNNSVIVQAVRDHLKKDSQNKTLLKTLAELYTYDKNYGNALEIYLTLRHKDVFQLIHKHNLFSSIKDKIVLLMDFDSEKAVDMLLDNEDKISIKKVVEELEDRPELQHVYLHKLFKRDHHKGQRYHEKQISLYAEYDRPNLLPFLRDSTHCPLEKALEICQQRNFVEETVYLLSRMGNSRSALKMIMEELHDVDKAIEFAKEQDDGELWEDLILYSIDKPPFITGLLNNIGTHVDPILLIHRIKEGMEIPNLRDSLVKILQDYNLQILLREGCKKILVADSLSLLKKMHRTQMKGVLVDEENICESCLSPILPSDAAKPFSVVVFHCRHMFHKECLPMPSMNSAAQFCNICSAKNRGPGSAILEMKK
B2: the binding entry in assay [2] is on record as “binds”.
